Source: PubChem BioAssay AID504804 (Drosophila RNAi Screening Center, 2011)

Purpose: 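Fly genes whose loss lessens doxorubicin-driven cell death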 (primary screen)
System: Drosophila Kc cells
Reagent: long dsRNA against Drosophila genes, 0.5 µg dsRNA per well
Duration: 96 h (48 h knock-down, then 48 h drug)
Treatment: doxorubicin 5 µg/ml for 48 h, added 48 h after dsRNA
Read-out: 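Viability measured as cellular ATP by luminescence after 48 h knock-down then 48 h doxorubicin at 5 µg/ml; unnormalised plate counts for each replicate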
Scale: raw ATP luminescence: higher = more viable cells, protection from doxorubicin
Active means: 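z-score of 2 or more over plate mean in both duplicates, retained only when retests and separate dsRNAs confirm the protection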
The screen tested about 19,000 reagents; this is a random part of those that have a named target and a result. Of all reagents, 47 (0.25%) got an active call. 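Signals are raw, not normalised; exact z-scores behind calls not deposited; actives needed confirmation, so some wells reaching 2 SD are inactive.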 Entries without a mark were called inactive.

The first 4 records as a preview:
CG11300 (GeneID 37760) [DRSC04104]: raw ATP luminescence, replicate 1 = 44023; raw ATP luminescence, replicate 2 = 45747
ValRS-m (GeneID 39023) [DRSC10535]: raw ATP luminescence, replicate 1 = 61137; raw ATP luminescence, replicate 2 = 67160
CG33919 (GeneID 3772720) [DRSC04940]: raw ATP luminescence, replicate 1 = 76577; raw ATP luminescence, replicate 2 = 78057
Sfp38D (GeneID 8673971) [DRSC01810]: raw ATP luminescence, replicate 1 = 60540; raw ATP luminescence, replicate 2 = 44753

The listing, repeating the preview:
CG11300 (GeneID 37760) [DRSC04104]: raw ATP luminescence, replicate 1 = 44023; raw ATP luminescence, replicate 2 = 45747
ValRS-m (GeneID 39023) [DRSC10535]: raw ATP luminescence, replicate 1 = 61137; raw ATP luminescence, replicate 2 = 67160
CG33919 (GeneID 3772720) [DRSC04940]: raw ATP luminescence, replicate 1 = 76577; raw ATP luminescence, replicate 2 = 78057
Sfp38D (GeneID 8673971) [DRSC01810]: raw ATP luminescence, replicate 1 = 60540; raw ATP luminescence, replicate 2 = 44753
CG31862 (GeneID 318989) [DRSC01245]: raw ATP luminescence, replicate 1 = 2.69e5; raw ATP luminescence, replicate 2 = 2.30e5
ND-B8 (GeneID 50178) [DRSC00449]: raw ATP luminescence, replicate 1 = 25877; raw ATP luminescence, replicate 2 = 31113
Nap1 (GeneID 37798) [DRSC04626]: raw ATP luminescence, replicate 1 = 68950; raw ATP luminescence, replicate 2 = 61820
Pex14 (GeneID 40294) [DRSC11754]: raw ATP luminescence, replicate 1 = 71177; raw ATP luminescence, replicate 2 = 62407
PolZ2 (GeneID 40677) [DRSC12325]: raw ATP luminescence, replicate 1 = 76190; raw ATP luminescence, replicate 2 = 64853
CG11241 (GeneID 40492) [DRSC11641]: SD above plate mean = 2 to 3 SD above plate mean (active); raw ATP luminescence, replicate 1 = 50257; raw ATP luminescence, replicate 2 = 42770
CG10749 (GeneID 39470) [DRSC09798]: raw ATP luminescence, replicate 1 = 82100; raw ATP luminescence, replicate 2 = 90680
CG42337 (GeneID 40335) [DRSC11686]: raw ATP luminescence, replicate 1 = 63180; raw ATP luminescence, replicate 2 = 51567
CG42337 (GeneID 40335) [DRSC11687]: raw ATP luminescence, replicate 1 = 27723; raw ATP luminescence, replicate 2 = 31270
ninaA (GeneID 33271) [DRSC00830]: raw ATP luminescence, replicate 1 = 1.07e5; raw ATP luminescence, replicate 2 = 62587
CG34454 (GeneID 5740130) [DRSC07864]: raw ATP luminescence, replicate 1 = 1.65e5; raw ATP luminescence, replicate 2 = 1.09e5
CG17698 (GeneID 4379919) [DRSC11907]: raw ATP luminescence, replicate 1 = 73877; raw ATP luminescence, replicate 2 = 81163
coil (GeneID 35785) [DRSC07242]: raw ATP luminescence, replicate 1 = 75230; raw ATP luminescence, replicate 2 = 58483
CG9997 (GeneID 43395) [DRSC16591]: raw ATP luminescence, replicate 1 = 56200; raw ATP luminescence, replicate 2 = 36870
Lcp3 (GeneID 35819) [DRSC07457]: raw ATP luminescence, replicate 1 = 34670; raw ATP luminescence, replicate 2 = 79293
CG3739 (GeneID 42320) [DRSC15510]: raw ATP luminescence, replicate 1 = 51760; raw ATP luminescence, replicate 2 = 59330
CG34224 (GeneID 5740585) [DRSC05269]: raw ATP luminescence, replicate 1 = 1.12e5; raw ATP luminescence, replicate 2 = 1.12e5
CG14995 (GeneID 38487) [DRSC08452]: raw ATP luminescence, replicate 1 = 33697; raw ATP luminescence, replicate 2 = 28160
CG34181 (GeneID 5740634) [DRSC01071]: raw ATP luminescence, replicate 1 = 2.43e5; raw ATP luminescence, replicate 2 = 2.18e5
Zir (GeneID 33165) [DRSC00307]: raw ATP luminescence, replicate 1 = 1.13e5; raw ATP luminescence, replicate 2 = 76253
cbt (GeneID 33224) [DRSC00655]: raw ATP luminescence, replicate 1 = 1.19e5; raw ATP luminescence, replicate 2 = 88107
CG14445 (GeneID 31556) [DRSC17938]: raw ATP luminescence, replicate 1 = 39110; raw ATP luminescence, replicate 2 = 36120
hng1 (GeneID 37412) [DRSC04555]: raw ATP luminescence, replicate 1 = 64680; raw ATP luminescence, replicate 2 = 52967
CG8159 (GeneID 41040) [DRSC16392]: raw ATP luminescence, replicate 1 = 70350; raw ATP luminescence, replicate 2 = 68807
Cog6 (GeneID 35953) [DRSC06806]: raw ATP luminescence, replicate 1 = 57167; raw ATP luminescence, replicate 2 = 45030
OtopLa (GeneID 8674066) [DRSC17787]: raw ATP luminescence, replicate 1 = 19470; raw ATP luminescence, replicate 2 = 29780
OtopLa (GeneID 8674066) [DRSC18133]: raw ATP luminescence, replicate 1 = 54360; raw ATP luminescence, replicate 2 = 50340
CG3792 (GeneID 33717) [DRSC02725]: raw ATP luminescence, replicate 1 = 34803; raw ATP luminescence, replicate 2 = 31867
CNT2 (GeneID 35914) [DRSC07073]: raw ATP luminescence, replicate 1 = 65800; raw ATP luminescence, replicate 2 = 48463
CG32202 (GeneID 326199) [DRSC09989]: raw ATP luminescence, replicate 1 = 59923; raw ATP luminescence, replicate 2 = 51717
CG42597 (GeneID 8674090) [DRSC03681]: raw ATP luminescence, replicate 1 = 70067; raw ATP luminescence, replicate 2 = 85187
CG8785 (GeneID 36391) [DRSC07266]: raw ATP luminescence, replicate 1 = 65963; raw ATP luminescence, replicate 2 = 62407
